Source: PubChem BioAssay AID1159506 (NCATS, 2015).

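Genome-wide siRNA knockdown in TC32 Ewing sarcoma cells, comparing luciferase light from an NR0B1-promoter reporter with a CMV-promoter reporter 48 hours after transfection.
Each siRNA was applied at 20 nM.
A z-score of the log NR0B1-over-CMV signal, less the median of siRNAs with the same seed; more negative means a stronger specific loss of the NR0B1 reporter.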

This is part of the screen; most of the strongest results are not listed here.
Sequences are the guide (antisense) strand, without overhang.

siRNA	target gene	seed-corrected z-score
AUAGUCGCCAAAGCCCACG	KCNK4	0.9897
UUCCUUUCAGCGACACUGG	BSX	-0.05236
UCAGGAUAAAGGUCUGAGU	CA12	0.3266
UCAGAUACAUCUCUGAUUG	LOC283804	1.257
UCUCUGUAAGUGAUAGUUC	ZNF148	-0.48
UCUCGGAUAGUCUUUAUCC	MMP13	-0.1021
UUAGUAGUCAGGUUGGAGG	ZDHHC18	-0.3751
UCAGGCGAGAUGUACCUGC	ENO1	-0.1024
UUACUGUCCACCGUGUAAU	LHX4	0.03358
UCUUUGUCAAAGCUUUGCG	COX4I1	-1.506
UUUCAUACCAUACAUCCCA	C3orf58	-0.3885
UAAAGUGCUCUGCUUUUGG	XAGE2	0.6025
UGAGAGUUAAGAAAUGUUU	CBX3P6	0.4966
UUUGGAUAGAAACAUCUUC	SLC7A14	0.07848
UUCGUGGAGGUAGUGAAGG	INTS6L	0.07022
UUCUGGUAAACAUCCUGGA	CCDC192	-1.228
UCAUUUGAAAUUGUCGCCU	PPP1R2P4	1.305
UUUGCUACUUCAUCGCUGG	ZAN	-0.2889
UAUGGAAUAAUCAAUGAAC	PBOV1	0.5286
UGAGUUUCAAAACUACGCC	MBD3	-1.024
AUAGACGCCAGGUUUGUCG	KLK8	-0.1716
UGCUGUUCAUUCUUCGUCG	IWS1	-1.105
UCAUCGGUGAAGAAGGGCG	FGF4	1.004
AAUCAGUCUCUUUAGGUGC	PLEKHG1	1.717
UUCCGUACAUGCAGUGAUC	GXYLT2	-0.1798
UACAUCUCUACAUAUUCGC	NFE2	-1.614
UAGGUAUUUUUCGUGGUUG	MRPL13	0.08577
UGUCCUACAACUAUGAUGU	IRF2	-0.8247
AAGGGUGUGGCGGUUAUGG	GPR153	-0.9437
AAUGCUAAAGUGUUCACAG	IGSF9B	0.4006
UUCCUUAAUGGUGACGGUC	CBX8	0.0297
AAAGGAAGUCCAACGGCUC	GPR162	2.002
UUCGGUGCUUCCAUCAUUG	BDP1	0.4722
UGCUGAUCCAAGACUGUCC	PDE6B	0.2603
AUGAGUACCACGUUGUCGC	CORO1B	0.04574
UAGGAGGUCAGAAAUACUG	CDT1	-0.8759
UAAAUGACAGGGUUAAGGG	OR52E4	0.021
UUGGGAUGGAAGAAUGUGC	SPATA31E2P	-0.2438
UGUUUAAGAACUGAUAGAG	RWDD2B	-0.7704
UAAUUCCAUGGUUUGACUC	GYG1	-0.5147
UCCGUUUCAAUCGGGAUAC	MTBP	0.08767
ACCAUAAUAACCUUGAUCC	ATP12A	0.5785
UAUUCGUUCAAGUUGAUCC	CDK14	0.5747
UCUACCAUGAUUUAUACGC	ZNF793	0.105